Data from paper PMC10401708, “Enzymatic Hydroxylation of Aliphatic C–H Bonds by a Mn/Fe Cofactor” (Journal of the American Chemical Society, 2023).
No constants are given. Whether binding was seen depends on the method and setting. Binding seen in cells or lysates may run through a third protein. A result given as binding can be weak or reduced; the word gives no strength.

Biological target: AibH1 subunit of AibH1H2, expressed from pET-Duet-AibH1H2 with the GroEL/ES-TF chaperones (Rhodococcus wratislaviensis)
Experiment: crystal structure; sitting-drop vapor diffusion at room temperature in an anaerobic chamber; co-expressed, co-purified AibH1H2 at 6 mg/mL; molecular replacement with PDB 6M2I; both purified

Substance: AibH2 subunit of the 2-aminoisobutyric acid hydroxylase AibH1H2 (from UniProt A0A402C2Q3)
- binding: binds
